This note sets out measurements from paper PMC6318265, “Structure of BAI1/ELMO2 complex reveals an action mechanism of adhesion GPCRs via ELMO family scaffolds” (Nature Communications, 2019).

Results are given in words; binding and its absence hold for the method and conditions named. In cells and extracts the contact can be indirect. Some results given as binding are weak or reduced against the parent protein; the word gives no strength. Sequences can lack the tags named with a protein.

Assay in all cases: pull-down; GST-tagged BAI proteins pre-loaded on GSH-sepharose 4B beads, incubated with lysates of HEK293T cells overexpressing Flag-tagged ELMO2 proteins; lysis buffer 50 mM HEPES pH 7.4, 150 mM NaCl, 1 mM EGTA, 10% glycerol, 1% Triton; 4 °C, 1 h; anti-Flag western blot; only the target purified
In test [1] the target is T1, BAI1 ELMO-binding domain (aa 1467-1502), pull-down construct (mouse) (UniProt Q3UHD1).
T1 sequence: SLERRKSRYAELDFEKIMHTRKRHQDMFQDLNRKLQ

In the next test the target is T2, BAI1-EBD R1489A (mouse) (UniProt Q3UHD1).
T2 sequence: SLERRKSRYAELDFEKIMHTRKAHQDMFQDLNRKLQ

Test [2] deals with T3, GST-tagged BAI1 1431-1582 (mouse) (UniProt Q3UHD1).
T3 sequence: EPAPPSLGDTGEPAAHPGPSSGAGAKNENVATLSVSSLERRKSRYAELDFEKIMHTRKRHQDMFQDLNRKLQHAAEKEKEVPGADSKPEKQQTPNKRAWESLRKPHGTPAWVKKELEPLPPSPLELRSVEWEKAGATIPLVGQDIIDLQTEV

B1: Flag-tagged RBD-ARR-ELMO tandem of ELMO2 (aa 1-520) (domain or fragment, UniProt Q96JJ3 1-520)
chain: MPPPSDIVKVAIEWPGANAQLLEIDQKRPLASIIKEVCDGWSLPNPEYYTLRYADGPQLYITEQTRSDIKNGTILQLAISPSRAARQLMERTQSSNMETRLDAMKELAKLSADVTFATEFINMDGIIVLTRLVESGTKLLSHYSEMLAFTLTAFLELMDHGIVSWDMVSITFIKQIAGYVSQPMVDVSILQRSLAILESMVLNSQSLYQKIAEEITVGQLISHLQVSNQEIQTYAIALINALFLKAPEDKRQDMANAFAQKHLRSIILNHVIRGNRPIKTEMAHQLYVLQVLTFNLLEERMMTKMDPNDQAQRDIIFELRRIAFDAESDPSNAPGSGTEKRKAMYTKDYKMLGFTNHINPAMDFTQTPPGMLALDNMLYLAKVHQDTYIRIVLENSSREDKHECPFGRSAIELTKMLCEILQVGELPNEGRNDYHPMFFTHDRAFEELFGICIQLLNKTWKEMRATAEDFNKVMQVVREQITRALPSKPNSLDQFKSKLRSLSYSEILRLRQSERMSQDD
Take B1: the binding entry is given as “binds” in test [1], “no binding” in the test with BAI1-EBD R1489A (mouse) and “binds” in test [2].
